# Reference: PubChem BioAssay AID308 (DTP/NCI, 2004)
# The list is a part of this screen's results and no random one: it gathers tests that were run many times, whatever their T/C, doses with no T/C, and many T/C values between a quarter and a half above the control. Other doses and runs of a compound stand elsewhere. T/C: endpoint of the treated group in % of that of the vehicle group. Some doses have a count of surviving animals in place of a T/C: the source holds a T/C of zero for them, seemingly a mark for toxic or unscored doses. Some doses without a T/C left all or most animals alive at the check, yet need not have been tolerated: the source hardly ever lists a survival T/C far under the control, and the zero likely stands for such cases as well. Counts of survivors are from the toxicity check (mostly the fifth day) where no day follows; animals may have died later. Schedule codes are those of the source, taken here to give the interval after Q, in days (D) or hours (H), and the number of doses after X. Some schedule codes hold Z or #, which are not explained here. Where survival is the endpoint, the PubChem record calls one and a half times the control and up active, and a quarter to a half above the control has no call in these data; cut-offs in other NCI protocols can differ. Some doses were run more than once; the results are listed from low to high. Some T/C values carry the count of animals alive at the toxicity check (mostly the fifth day); where none is given, no animal had died by that day.
# Test system: BDF1 mice, L1210 6-MP/6-TG resistant leukemia ip, survival T/C
# Test: NCI In Vivo Anticancer Drug Screen. Data for tumor model L1210 Leukemia resistant to 6-MP and 6-Thioguanine; NSC 755, NSC 752 (intraperitoneal) in B6D2F1 (BDF1) mice
# Details: T/C endpoint: mean survival time, higher T/C = longer survival
# Description: The antitumor activity of compounds was measured in mice bearing transplantable tumors. Survival or tumor size were measured and the results are expressed as the measurement made in the treated group (T) divided by the measurement made in the vehicle treated control group (C). The tumor model used in this assay is L1210 Leukemia resistant to 6-MP and 6-Thioguanine; NSC 755, NSC 752 (intraperitoneal) in B6D2F1 (BDF1) mice
# [1] = dose: 100.0 mg/kg/injection, schedule: Q01DX Z (ip), vehicle: saline
smiles,measurement,setting,value
CCC1(Sc2ncnc3nc[nH]c23)C(=O)NC(=O)NC1=O,survivor count,"dose: 400.0 mg/kg/injection, schedule: Q01DX010 (ip), vehicle: alkali diluted with saline",6 of 6
O=NN(CCCl)C(=O)NCCCl,T/C,"dose: 1.0 mg/kg/injection, schedule: Q01DX015 (ip), vehicle: saline","102, 115, 118, 152 % of control"
same,T/C,"dose: 4.0 mg/kg/injection, schedule: Q01DX015 (ip), vehicle: saline","116, 169, 173, 184 % of control"
Nc1ncnc2c1ncn2C(C=O)OC(C=O)CO (stereo unspecified),T/C,"dose: 6.0 mg/kg/injection, schedule: Q01DX015 (ip), vehicle: saline",137 % of control
same,T/C,"dose: 20.0 mg/kg/injection, schedule: Q01DX015 (ip), vehicle: saline",127 % of control [4 of 6 alive]
same,T/C,"dose: 25.0 mg/kg/injection, schedule: Q01DX Z (ip), vehicle: saline",130 % of control
same,survivor count,"dose: 30.0 mg/kg/injection, schedule: Q01DX015 (ip), vehicle: saline",2 of 6
same,survivor count,"dose: 45.0 mg/kg/injection, schedule: Q01DX015 (ip), vehicle: saline",6 of 6
same,survivor count,"dose: 67.0 mg/kg/injection, schedule: Q01DX015 (ip), vehicle: saline",1 of 6
same,survivor count,"dose: 96.0 mg/kg/injection, schedule: Q01DX015 (ip), vehicle: saline",1 of 10
same,survivor count,[1],0 of 7
CN(C)c1ccc(/C=C/c2ccnc3ccccc23)cc1,survivor count,"dose: 75.0 mg/kg/injection, schedule: Q01DX Z (ip), vehicle: saline",6 of 6
same,survivor count,[1],6 of 6
NC(=O)N(CCCl)N=O,T/C,"dose: 0.22 mg/kg/injection, schedule: Q01DX Z (ip), vehicle: saline",138 % of control
same,T/C,"dose: 2.5 mg/kg/injection, schedule: Q01DX Z (ip), vehicle: saline",140 % of control
same,survivor count,"dose: 10.0 mg/kg/injection, schedule: Q01DX Z (ip), vehicle: saline",5 of 6
[N-]=[N+]=CC(=O)NCC(=O)NN,T/C,"dose: 125.0 mg/kg/injection, schedule: Q01DX Z (ip), vehicle: saline",125 % of control [5 of 6 alive]
same,T/C,"dose: 250.0 mg/kg/injection, schedule: Q01DX Z (ip), vehicle: saline",138 % of control
same,T/C,"dose: 500.0 mg/kg/injection, schedule: Q01DX Z (ip), vehicle: saline",132 % of control
CS(=O)(=O)OCCCl,survivor count,"dose: 200.0 mg/kg/injection, schedule: Q01DX Z (ip), vehicle: saline",4 of 6
CCCSc1nc(N)nc2nc[nH]c12,survivor count,"dose: 200.0 mg/kg/injection, schedule: Q01DX Z (ip), vehicle: carboxymethylcellulose (CMC)",6 of 7
same,survivor count,"dose: 300.0 mg/kg/injection, schedule: Q01DX Z (ip), vehicle: carboxymethylcellulose (CMC)",0 of 7
O=C(Nc1ccc(C2=NCCN2)cc1)c1ccc(C(=O)Nc2ccc(C3=NCCN3)cc2)c(Cl)c1,T/C,"dose: 5.7 mg/kg/injection, schedule: Q01DX015 (ip), vehicle: carboxymethylcellulose (CMC)",148 % of control
same,T/C,"dose: 6.7 mg/kg/injection, schedule: Q01DX015 (ip), vehicle: carboxymethylcellulose (CMC)",147 % of control
same,T/C,"dose: 7.0 mg/kg/injection, schedule: Q01DX015 (ip), vehicle: carboxymethylcellulose (CMC)",129 % of control
same,T/C,"dose: 10.0 mg/kg/injection, schedule: Q01DX015 (ip), vehicle: carboxymethylcellulose (CMC)",140 % of control
same,T/C,"dose: 13.0 mg/kg/injection, schedule: Q01DX015 (ip), vehicle: carboxymethylcellulose (CMC)","87, 190, 221, 271 % of control"
same,T/C,"dose: 20.0 mg/kg/injection, schedule: Q02DX010 (ip), vehicle: carboxymethylcellulose (CMC)",146 % of control [9 of 10 alive]
same,T/C,"dose: 67.5 mg/kg/injection, schedule: Q02DX010 (ip), vehicle: carboxymethylcellulose (CMC)",131 % of control
CCCSc1ncnc2nc[nH]c12,survivor count,"dose: 350.0 mg/kg/injection, schedule: Q01DX Z (ip), vehicle: other",0 of 6
N#[N+]c1cnc([O-])[nH]c1=O,T/C,"dose: 1.87 mg/kg/injection, schedule: Q01DX Z (ip), vehicle: alkali diluted with saline",127 % of control
same,T/C,"dose: 3.75 mg/kg/injection, schedule: Q01DX Z (ip), vehicle: alkali diluted with saline",135 % of control
same,survivor count,"dose: 20.0 mg/kg/injection, schedule: Q01DX Z (ip), vehicle: alkali diluted with saline",5 of 6
same,survivor count,"dose: 40.0 mg/kg/injection, schedule: Q01DX Z (ip), vehicle: alkali diluted with saline",0 of 6
O=C(O)CCCc1ccc(N(CCCl)CCCl)cc1,survivor count,"dose: 40.0 mg/kg/injection, schedule: Q01DX Z (ip), vehicle: carboxymethylcellulose (CMC)",3 of 6
same,survivor count,"dose: 50.0 mg/kg/injection, schedule: Q01DX Z (ip), vehicle: carboxymethylcellulose (CMC)",0 of 6
